B1: 46472-7 (antibody, V domains shown)
VH: GVQLVESGGGLVQPGGSLRLSCSASGFTFSSYAMHWVRQAPGKGLEYVSGINVNGYDTYYADSVKGRFTISRDNSKNTLFLQMISLTAEDTALYYCVKEDTPLVFDSWGQGTLVTVSS
VL: DIQMTQSPSTLSASVGDRVTITCRASQFINSWLAWYQQKPGKAPKLLIYAASSLQSGVPSRFSGSGSGTEFTLTINSLQPDDFATYYCQQYDSYSTFGQGTKVEIK
B2: 46472-8 (antibody, V domains shown)
VH: EVQLVESGGGFIQPGGSVRLSCSASGFNVYDNYFSWVRQAPGRGPEWVSVIYRDGATRYAESVQGRFTMFRDNSRKTLYLQMNRLKAGDTAVYFCALGRKDYGDYYRWGQGTLVTVSS
VL: EIVLTQSPGTLSLSPGETATLSCRAGQSVRSRFLAWYQQKPGQSPRVLIYGASNRASGVPDRFSGSGSGTDFTLTITRLEPEDVAVYYCQQYAPSPPWYIFGQGTKLEIK
B3: 46472-12 (antibody, V domains shown)
VH: QVQLVQSGAEVQKPGASVKVSCKASGYRFDIFDINWVRQASGQGPEWMGWMNPNSGNTGYAHKFQGRVTMTRDSSTNTAYMELSSLTFEDTAVYYCARDRVERTGNVGFGYYAMDVWGQGTTVIVSS
VL: DIQMTQSPSSLSASVGDRVTITCRASQSITNYLNWYQQRPGKAPRLLIYAASSLQSGVPSRFSGSGSGTDFTLTISSLQPEDFGTFYCQQTYSSPSYTFGQGTKLEMK
B4: 46472-13 (antibody, V domains shown)
VH: EVQLVESGGGLVPPGGSLGLSCAASGFTFSEFWMSWVRQTPGKGLEWVANIGQDGNSKYYVDSVKGRFTISRDNAKSSLNLQMNSLRAEDTGVYYCARVTIVSSFTNRFDPWGQGVLVTVSS
VL: AIQLTQSPSSLSASIGDRVTFTCRASQDISNFLAWYQQKPGEPPKLLIYSVSTLQSGVPSRFSGSGSGTDFTLTISSLQSEDLATYYCQHRVTFGPGTKVGIK
B5: 46472-10 (antibody, V domains shown)
VH: EVHLVESGGGLIQPGGSLKLSCAASGFAVSGYYMIWVRQAPGKGLEWVSVIFTSGRTYYADSAKGRFTISRDSSKNTLYLQMDSLRAEDTAVYYCAGFLPVYNNGWSYFDSWGQGTLVTVSS
VL: QSVLTQPPSASGTPGQRVTISCSGSRPNIGNNKVNWYQQLPGTAPKVLIYGNNQRPSGVPDRFSGSKSATSASLAISGLQSEDEADYYCAVWDDSLNGPVFGGGTKLTVL
B6: 46472-1 (antibody, V domains shown)
VH: QVQLVQSGAEVKKDGSSVKVSCEASGGTFSDYAISWVRQAPGQGLEWMGRIIPILGITNYAQQFQTRVTITADKSTSAVYMELSSLRSKDTAIYYCAREVNYYSAFDDWGQGTQVTVSS
VL: EIVMTQSPDTLSVSPGERATLSCRASQNVSSNLAWYQQKPGQAPRLLIYDASTRATGIPARFSGSGSGTEFTLAISSLQSEDFAVYYCQQYNFWWTFGQGTKVDIK
B7: 46472-2 (antibody, V domains shown)
VH: EVQLVQSGAEVKKPGESLRISCKGSGYRFITYWISWVRQMPGRGLEWMGKIDPSDSSTNYSPSFQGHVAISVDKSFNTAYLQWSRLNTSDTAMYYCAAGPTGYDLLTGQYFPYFNYWAQGTLVTVSS
VL: NFMLTQPHSVSESPGKTVSISCTRSSGSIASKFMQWYQQRPGSAPTILIYEDNLRPSGVPDRFSGSIDTSSNSALLTISGLKTEDEADYYCQSYHGSDVVFGGGTKLTVL
B8: 46472-15 (antibody, V domains shown)
V domain 1: QVQLVQSGSELKKPGASVKVSCKASGYTFTSYALNWVRQAPGQGLEWMGWININTGKPTYAQGFTGRFVLSLDTSVSTAYLQISSLKAEDTAVYYCARDFDLVVPSATYPPFYYHGMDVWGQGTTVTVSS
V domain 2: SSELTQDPAVSVALGQTVRITCQGDSLRTYYASWYQQKPGQAPILVIYGKNKRPSGIPDRFSGSSSGNTASLTITGAQAEDEADYYCNSRDSSGDQTFYVFGTGTQVTVL
B9: 46472-9 (antibody, V domains shown)
VH: QVQLQESGPGLVKPSETLSLTCIISGGSVSSGSYYWSWIRQPPGKGLEYIGYIFYSGNTNYNPSLKSRVTISVDTSKNQFSLRLTSVTAADTAVYHCASLPTYGSGRWGIDSWGQGTLVTVSS
VL: DIQMTQSPSSVSASVGDRVTITCRASQDISIWLTWYQQRPGKAPKLLIYAASALQRGVPSRFSGSGSGTDFTLTISSLQPEDFTTYFCQQGNSFPLTFGGGTKVEIK
B10: 46472-5 (antibody, V domains shown)
VH: QLRLQASGPGLVRPSVTLSLTCAVSGASVKSDKSYWGWFRQSPGKGLASIATIYYNGNVYYNPSLKSRVTLSLDTSTNQLSLKMRSVTAADTAIYYCARLDYSKQTWGQGILVTVSS
VL: DIVMTQSPRSLPVTPGEPASISCRSSQSLVHTNGYNYLDWYLQKPGQSPQLLIYLASNRASGVPGRFSGSGSGTDFTLKISRVEADDVGVYYCMQALQTPLTFGGGTRLEIK
B11: 46472-4 (antibody, V domains shown)
VH: EVPLLESGGGLVQPGGSLRLSCVASGFPFSSFALSWVRQAPGKGLEWVSTINTNGGTTYYLDSVKGRFTVSRDNSKNTLFLQMSSLRAEDTAIYYCAKDLLSHSGTYSAGSTFDYWGQGTLVIVSS
VL: DIQMTQSPSSLSASVGDRVTITCRASQSIGVYLNWYQQKPGKAPKLLIHATSNLQSGVPSRFSCSGSGTEFTLTISSLQPEDFATYYCQESYSTNTFGQGTKLEIK
B12: 46472-11 (antibody, V domains shown)
VH: EGQLLESGGGLVQPGGSLRLSCEASGFTFSRYAMTWIRQAPGKGLEWVSSITAIPYDRFYADSVKGRFTISRDDSKNMVYLQANSLRVEDTAVYYCVKMRTAVVGVTPLWGQGTLVTVSS
VL: AIQVTQSPSSLSASVGDRITITCRTSQGIRDDLGWYQQKPGKAPTLLIYGATNLQSGVPSRFSGSESGTDFTLTISSLQPEDFATYYCLQDYNYLFSFGPGTKVDIK
B13: 46472-14 (antibody, V domains shown)
VH: EVLLVESGGGVIQPGASLRLSCEPSGTTVSSNFWTWVRQAPGRRLEHVAIIYSGDATYYADSVKGRFTIFRDNSKNMLFLEMNNLKVADSAIYFCVRGRTYWGQGTLVSVSS
VL: EIVMTQSPATLSLSPGDTATLSCRASQSVASNLAWYQQKPGQAPRLLVSGASTRATGIPPRFSGSGSGTEFTLTISSLQSEDFAVYYCQQYNRWLWTFGQGTKVEIK
B14: 46472-3 (antibody, V domains shown)
VH: QVQLVESGGGVVQPGRSLRLSCAASGFTFSVYPMHWVRQAPGRGLEWVAVISYDGSNQYYADSVRGRFTISRDNSKNTLYLHMNSLRPEDTAVFYCARDRSATYYGPFDYWGQGTLVTVSS
VL: SSELTQDPAVSVALGQTVRITCQGDSLRSYSASWYQQKPSQAPVLVIYANNNRPSGIPDRFSGSNSGNTASLTITGAQAEDEADYYCNSRDNSGNHPVIFGGGTTLTVL

Results are given in words; binding and its absence hold for the method and conditions named.

This experiment has as its target H1 NC99, an influenza hemagglutinin protein (influenza virus). Put plainly: ELISA (FIG. 10).
For the molecule B1, the binding entry was “no binding”.

Regarding B2, the binding result is recorded as “no binding”.

As to B3, the binding entry was “no binding”.

Take B4: the binding entry was “no binding”.

Consider B5, for which the binding entry was “no binding”.

B6: the binding entry is “no binding”.

For the molecule B7, the binding result is listed as “no binding”.

As to B8, the binding result was “no binding”.

Take B9: the binding result is “no binding”.

Regarding B10, the binding entry is recorded as “no binding”.

For the molecule B11, the binding result was “no binding”.

As to B12, the binding result is given as “no binding”.

Consider B13, for which the binding result is “no binding”.

Regarding B14, the binding entry was “no binding”.

The values above are taken from patent publication US20230348571A1.
